The nature of the assay: qHTS Assay for Lipid Storage Modulators in Drosophila S3 Cells.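 For cell number change: cells counted by Cell Tracker Red CMTPX staining in the red channel.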 The settings on record: BODIPY lipid droplet fluorescence, 18-24 h; for cell number change: measured here: cell count max response, cells fed with added oleic acid. Summed up:
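Drosophila S3 cells got compounds at several concentrations plus oleic acid (400 uM solution). Laser-scanning cytometry with 488 nm excitation read lipid droplets at 500-530 nm and cells at 575-640 nm. Percent activity was relative to 20 uM Triacsin C.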

[1] abbreviates: measured here: cell number channel AC50, cells fed with added oleic acid.
The mark [2] stands for this setting: measured here: lipid fluorescence (Fed channel) AC50, cells fed with added oleic acid.

Data on 59 compounds can be found in PubChem BioAssay AID2685 (National Center for Advancing Translational Sciences (NCATS), 2010).

Some of the results follow. The main result of the screen is listed elsewhere. These columns were measured beside it and carry no call. Compounds called inactive in the main read-out are mostly missing here. The note in brackets gives the kind of curve behind each potency; many fits are weak.

For orientation: AC50 means the midpoint of the concentration-response curve, whichever way the signal moves.

As for `CC1=CC(=Cc2sc3ccccc3[n+]2C)C=C(C)O1`, the cell number change was -57.4%. In addition, under setting [1], the AC50 was 5.17 µM [falling, partial curve, poor fit]. The AC50 under setting [2] is 8.2 µM [falling, partial curve].
Turning to `O=P(OC1CCS(=O)(=O)C1)(c1ccccc1)c1ccccc1` (centres undefined), the AC50 under setting [1] is 0.517 µM [falling, full curve, poor fit].
On to `COc1cccc(C2(O)CCN(CC(=O)Nc3nc(C)cs3)CC2)c1`, for which the cell number change is -4.6%.
Consider `Cc1ncc(CN2CCCC(C(=O)c3cccc(OC(C)C)c3)C2)s1` (centres undefined), for which the cell number change is -0.358%. In addition, the concentration at half-maximal activity (AC50) under setting [2] was 0.517 µM [falling, single point].
Consider `Nc1ccc(Br)cc1C(=O)c1ccccc1`, for which the cell number change is -21.7%. For the same compound, the AC50 under setting [2] is 7.31 µM [falling, partial curve, poor fit].
Take `CC1N(O)C2CCCCCC2N1O` (centres undefined): the cell number change is -35.1%. The AC50 under setting [1] was 6.51 µM [falling, full curve, poor fit]. The AC50 under setting [2] is 5.8 µM [falling, full curve].
As for `CCn1c(=O)cc(OCC(=O)N2CCC3(CC2)OCCO3)c2ccccc21`, the cell number change was -1.29%. For the same compound, the AC50 under setting [2] is 3.26 µM [rising, single point].
Regarding `Cc1cc(OCc2ccc([N+](=O)[O-])cc2)c2c3c(c(=O)oc2c1)CCCC3`, the cell number change is -5.2%.
Turning to `O=C(Nc1ccccc1)c1cc([N+](=O)[O-])ccc1N1CCNCC1`, the cell number change turned out to be 37.7%. Further, the AC50 under setting [1] is 13 µM [rising, partial curve, poor fit]. Moreover, the AC50 under setting [2] is 3.26 µM [rising, full curve, poor fit].
As for `N/C(=N\[N+](=O)[O-])N/N=C/c1ccc(O)cc1`, the cell number change is -0.287%. Besides, under setting [1], the half-maximal activity concentration (AC50) is 2.06 µM [rising, partial curve].
On to `Clc1ccccc1CN1CCN(c2ccccc2Cl)CC1`, for which the cell number change came to 120%. Moreover, under setting [1], the AC50 was 25.9 µM [rising, partial curve]. The AC50 under setting [2] was 2.31 µM [rising, partial curve].
With `COc1ccc(NC(=O)c2cc([N+](=O)[O-])ccc2N2CCNCC2)cc1`, the cell number change turned out to be 2.33%.
Consider `COC(=O)C1=C(c2ccc3ccccc3c2)C[C@@H]2CC[C@H]1N2C(=O)NCCNC(C)=O`, for which the cell number change was determined as 6.98%. Besides, under setting [2], the concentration at half-maximal activity (AC50) is 0.82 µM [falling, full curve, poor fit].
On to `COC(=O)C1=C(c2ccccc2OCc2ccccc2)C[C@@H]2CC[C@H]1N2C(=O)NCc1ccc(C(F)(F)F)cc1`, for which the cell number change was -7.44%. Moreover, the concentration at half-maximal activity (AC50) under setting [2] is 25.9 µM [falling, single point].
With `CCOc1cc(/C=C2\C(=O)NC(=O)N(C)C2=O)cc([N+](=O)[O-])c1O`, the cell number change is 4.76%. Under setting [2], the AC50 is 0.146 µM [falling, full curve].
As for `O=C1CN(O)C(c2ccccc2)=c2cc(Cl)ccc2=N1`, the cell number change amounted to 32.3%. The AC50 under setting [1] was 2.59 µM [rising, partial curve, poor fit]. Further, under setting [2], the half-maximal activity concentration (AC50) is 0.58 µM [falling, full curve, poor fit].
`NCC1(c2ccc3c(c2)OCCO3)CCCC1`: the cell number change is 9.79%. For the same compound, the AC50 under setting [2] was 0.00461 µM [rising, full curve, poor fit].
For the compound `CCN1C[C@]2(COC(=O)c3ccccc3N)CC[C@H](OC)C34[C@@H]5C[C@H]6[C@H](OC)[C@@H]5[C@](O)(C[C@@H]6OC)[C@@](O)([C@H]13)[C@@H](OC)[C@@H]42`, the cell number change worked out at 12.5%. The concentration at half-maximal activity (AC50) under setting [1] was 4.11 µM [rising, single point]. Besides, the AC50 under setting [2] was 6.51 µM [falling, single point].
`COC(=O)C1=C(c2ccc(-c3ccccc3)c(F)c2)C[C@@H]2CC[C@H]1N2C(=O)NCc1cccc2ccccc12`: the cell number change was -23.8%.
Consider `O=C(COc1ccc(Cl)cc1)N1CCN(Cc2ccccc2)CC1`, for which the AC50 under setting [2] was 0.00517 µM [rising, full curve, poor fit].
In the case of `COC(=O)C1=C(c2ccccc2OCc2ccccc2)C[C@@H]2CC[C@H]1N2C(=O)NCc1ccc(F)cc1`, the cell number change was 0.0614%. Under setting [2], the half-maximal activity concentration (AC50) is 5.17 µM [falling, full curve, poor fit].
As to `O=c1[nH]c(O)c(C=NC2CCN(Cc3ccccc3)CC2)c(=O)[nH]1`, the cell number change was 31.9%. Further, the AC50 under setting [1] is 16.4 µM [rising, single point].
With `COc1ccc(C(=O)C2CN(C)CC2C(=O)c2ccc(OC)cc2)cc1` (centres undefined), the cell number change is -20.7%. Besides, under setting [2], the AC50 was 13 µM [falling, partial curve, poor fit].
Take `C=CCN1C(=O)/C(=C/c2ccc(Br)s2)C(=O)NC1=S`: the cell number change came out at 0.88%. In addition, the concentration at half-maximal activity (AC50) under setting [2] was 9.2 µM [falling, single point].
As to `CN(C)C(=O)OCc1n(C)cc[n+]1C`, the cell number change is -27.6%. Besides, under setting [1], the half-maximal activity concentration (AC50) was 0.58 µM [falling, full curve, poor fit]. In addition, under setting [2], the concentration at half-maximal activity (AC50) was 0.731 µM [falling, full curve].
Take `Cc1sc2ncn(CC(=O)NCC(=O)N3CCC4(CC3)OCCO4)c(=O)c2c1C`: the cell number change was -10.5%. Besides, the AC50 under setting [1] is 0.517 µM [falling, full curve].
Consider `COCCOC(=O)C1=C(N)OC(C)=C(C(=O)OC)C12C(=O)Nc1ccccc12` (centres undefined), for which the cell number change is 0.988%. Under setting [2], the AC50 is 25.9 µM [falling, single point].
On to `CCn1c(O)c(N=Nc2cccc(S(=O)(=O)N3CCOCC3)c2)c(=O)n(CC)c1=S`, for which the cell number change was -11.5%. Also, the AC50 under setting [2] is 0.651 µM [falling, single point].
As for `Cc1ccc(-n2c(O)c(C=Nc3ccc(S(N)(=O)=O)cc3)c(=O)[nH]c2=O)cc1`, the cell number change is -40.9%. In addition, under setting [1], the concentration at half-maximal activity (AC50) is 29.1 µM [falling, single point]. Under setting [2], the AC50 is 1.46 µM [falling, partial curve].
Turning to `CN(C)CC1CSCCC1(O)c1ccc(C(F)(F)F)cc1` (centres undefined), the cell number change was -10.9%. The AC50 under setting [2] was 23.1 µM [rising, partial curve, poor fit].
Consider `CCC(=NCc1ccco1)c1c(O)n(C2CCCCC2)c(=O)[nH]c1=O`, for which the cell number change came to 44.6%. Also, the AC50 under setting [1] is 29.1 µM [rising, single point]. Besides, the AC50 under setting [2] was 3.66 µM [rising, single point].
In the case of `CCOc1ccc(N2C(=O)CC(=O)NC2=O)cc1`, the cell number change is 1.82%.
Take `O=C(OCC(=O)c1ccc([N+](=O)[O-])cc1)/C(=C/c1ccc(Cl)cc1)NC(=O)c1ccccc1`: the cell number change was -3.3%. For the same compound, the AC50 under setting [2] is 25.9 µM [falling, single point].
In the case of `OC(COCc1ccc(Cl)cc1)CN1CC=C(c2ccccc2)CC1` (centres undefined), the cell number change is -31.5%. Moreover, the AC50 under setting [1] was 29.1 µM [falling, single point]. The half-maximal activity concentration (AC50) under setting [2] was 8.2 µM [falling, partial curve].
`ClC(Cl)=C(c1ccc(Cl)cc1)c1ccc(Cl)cc1`: the cell number change came out at 14.3%. In addition, the concentration at half-maximal activity (AC50) under setting [2] was 14.6 µM [rising, partial curve].
On to `CCC(=O)Nc1ccccc1`, for which the cell number change came to 4.6%.
As for `COC(=O)C1=C(c2ccc(OC(F)(F)F)cc2)C[C@@H]2CC[C@H]1N2C(=O)NC1Cc2ccccc2C1`, the cell number change was -3.25%. The half-maximal activity concentration (AC50) under setting [1] is 6.51 µM [falling, single point]. For the same compound, the half-maximal activity concentration (AC50) under setting [2] is 29.1 µM [falling, partial curve, poor fit].
With `CC(C)(C)C(=O)NC1CCSC1=O` (centres undefined), the cell number change amounted to 10.1%. The AC50 under setting [1] was 0.651 µM [falling, full curve]. Also, the concentration at half-maximal activity (AC50) under setting [2] is 1.03 µM [falling, full curve].
As for `CN(C)C(=O)CSc1nnc([C@@H](N)Cc2ccccc2)o1`, the cell number change worked out at 30.7%. In addition, the half-maximal activity concentration (AC50) under setting [1] was 32.6 µM [rising, single point].
As for `O=c1[nH]c(O)c(/C=C2\C=NN=C2c2ccccc2)c(=O)[nH]1`, under setting [1], the concentration at half-maximal activity (AC50) was 6.51 µM [rising, single point].
Consider `CCN1c2nc3c(C)cccn3c(=O)c2CC2(C(=O)N(C)C(=O)N(C)C2=O)C1C` (centres undefined), for which the AC50 under setting [2] is 0.651 µM [rising, single point].
Regarding `COc1ccc2c(C)c(CC(=O)N3C[C@H]4C[C@@H](C3)c3cccc(=O)n3C4)c(=O)oc2c1`, the cell number change was 11.4%. Further, the half-maximal activity concentration (AC50) under setting [2] is 29.1 µM [rising, single point].
Consider `CC(=O)NCC(=O)Nc1ccc(Br)cc1C(=O)c1ccccc1`, for which the cell number change was 22.8%.
`Cc1cccc(OP(N)(=O)Oc2cccc(C)c2C)c1C`: the cell number change amounted to 5.73%.
On to `CCCCC12CNCC(C)(CNC1)C2=O`, for which the cell number change was -14.8%. Further, the concentration at half-maximal activity (AC50) under setting [2] was 20.6 µM [falling, partial curve].
Regarding `CCN(CC)C(=O)c1ccc(NC(=O)CSc2nnnn2-c2cc(OC)ccc2OC)cc1`, the cell number change is 22.6%.
Consider `COc1ccc(NC(=O)c2cn(CCC#N)nc2-c2ccc(OC)c(OC)c2)cc1`, for which the cell number change is -25.5%. Besides, under setting [2], the AC50 is 1.03 µM [rising, full curve].
In the case of `CCc1cccc2c(C#N)cn(CC(=O)N3CCOCC3)c12`, the cell number change was -79.2%. Under setting [1], the AC50 was 25.9 µM [falling, partial curve].
`Cc1ccc(-c2nc3ccccc3c(=O)n2-c2cc(C)ccn2)cc1`: the cell number change was -26%.
Regarding `CCCCCSc1cc(O)c(C(CNC)C(C)C)cc1OC` (centres undefined), the AC50 under setting [2] was 4.11 µM [falling, partial curve].
On to `Cc1cccc(-c2nc3ccccc3c(=O)n2-n2cccc2)c1`, for which the cell number change is 18.3%.
Take `Cc1sc2ccccc2c1CC1=NCCN1`: the cell number change stood at 21.7%. Moreover, the AC50 under setting [2] was 4.11 µM [rising, partial curve].
In the case of `O=C(Cn1c(=O)oc2ccc(Cl)cc21)NC1CCCCC1`, the AC50 under setting [1] was 6.51 µM [rising, single point].
Regarding `O=C1NC(=S)NC(=O)C1C/C=C/c1ccccc1`, the cell number change stood at 16.6%. Moreover, the half-maximal activity concentration (AC50) under setting [2] was 0.517 µM [falling, full curve, poor fit].
Regarding `Cn1c(O)c(C(=Nc2ccccc2)SCc2ccccc2Cl)c(=O)n(C)c1=O`, the cell number change is -19%. The half-maximal activity concentration (AC50) under setting [2] is 32.6 µM [falling, single point].
As for `Cn1c(O)c(/C=C2\C=Nc3ccc(Br)cc32)c(=O)n(C)c1=O`, the cell number change was -9.68%. Besides, the AC50 under setting [2] is 6.51 µM [rising, partial curve, poor fit].
Consider `COc1ccc(OCCOc2cccc(C=C3C(=O)NC(=O)NC3=O)c2)cc1`, for which the cell number change stood at 27.7%. The AC50 under setting [2] was 29.1 µM [rising, single point].
Consider `COc1ccccc1N=Cc1c(O)n(C)c(=O)n(C)c1=O`, for which the cell number change is 32.7%. Also, the half-maximal activity concentration (AC50) under setting [1] was 0.164 µM [rising, full curve, poor fit]. For the same compound, under setting [2], the AC50 was 3.66 µM [rising, partial curve, poor fit].
Turning to `Cc1ccc(N(C)C(=O)Oc2cccc3cccnc23)cc1`, the cell number change was -3.21%. Also, under setting [2], the AC50 is 29.1 µM [rising, single point].
